Experimental data: US20240197876A1, “METHODS TO DETERMINE TREATMENT EFFICACY WITH GAMMA-DELTA T CELLS” (THE TRUSTEES OF THE UNIVERSITY OF PENNSYLVANIA, priority 2021, published 2024)
For at least one compound, name, drawing or mass did not settle the structure.

Key:
Format in all cases: cell-based, human
Vδ2 T cells = experiment: Vδ2 T cell expansion from cultured PBMCs (γδTCR activator with or without TLR agonist), FACS
Protocol: Primary cells and cell lines: PBMCs and monocytes were obtained from Human Immunology Core at the University of Pennsylvania, which were obtained from healthy donors-Using informed consent and approved by Institutional Review Board. For γδ T cell expansion, PBMCs were cultured with RPMI1640 media supplemented with 10% FBS (HyClone, GE Healthcare, UT, USA), 100 U/ml Penicillin-Streptomycin, 2 mM L-Glutamine, 1/1000 2-Mercaptoethanol (2-Me) (Gibco, ThermoFisher Scientific, MA, USA) (or without 2-Me as indicated) and 200 units/ml of Recombinant Human IL-2 (PeproTech, NJ, USA) in 24-well microplates, new media added and supplemented every other day. TCR-γδ T cells were expanded in 24-well tissue culture treated microplates that were coated with mouse-monoclonal Anti-Pan-TCR γδ antibody (1.0 ug/ml in PBS; IMMU510, IM1349, Beckman). For naive γδT cell isolation, PBMCs were purified using a commercial Human TCR γ/δ T Cell Isolation Kit (Miltenyi Biotec, Germany). […] Human melanoma cell lines A375, A2058, WM9, 903 were obtained from Meenhard Herlyn's laboratory (The Wistar Institute, Philadelphia, PA, USA) and they were routinely tested for mycoplasma and DNA fingerprinted (Liu, et al., 2018, Nat Commun 9: 5426). Lung cancer cell line H1975, Colon cancer cell line HT-29, Gastric cancer cell line NCI-N87 were purchased from ATCC. Daudi cells were obtained from Andrei Thomas-Tikhonenko Lab at the University of Pennsylvania and Children's Hospital of Philadelphia, K562 cells were obtained from Michael Milone Lab at the University of Pennsylvania. BRAFi and MEKi combination therapy resistant (CR) cell lines WM9-CR and A2058-CR were generated as described before (Lu, et al., 2017, Nature 550: 133-136).
Flow cytometry: PBMCs and γδ T cell phenotypes were analyzed by flow cytometry. Briefly, single-cell suspensions were surface-stained for 30 min at 4° C. in dark, and […] staining was performed for 60 min after fixation and permeabilization using a True-Nuclear™ Transcription Factor Buffer Set (BioLegend, CA, USA). CFSE Cell Proliferation Kit for flow cytometry was purchased from Invitrogen (ThermoFisher Scientific, MA, USA). Fluorescein-conjugated antibodies were used. Data were acquired on LSRA/B or Fortessa B flow cytometers (BD Biosciences, NJ, USA) at Flow Cytometry and Cell Sorting Resource Laboratory at the University of Pennsylvania and analyzed with FlowJo software (Tree Star, Ashland, OR).

adherent APCs = experiment: Adherent APC formation and checkpoint protein expression in cultured PBMCs; conditions: resiquimod with or without IPP
purified γδ T cells = experiment: CFSE proliferation of purified naive γδ T cells
Protocol: Primary cells and cell lines: PBMCs and monocytes were obtained from Human Immunology Core at the University of Pennsylvania, which were obtained from healthy donors-Using informed consent and approved by Institutional Review Board. For γδ T cell expansion, PBMCs were cultured with RPMI1640 media supplemented with 10% FBS (HyClone, GE Healthcare, UT, USA), 100 U/ml Penicillin-Streptomycin, 2 mM L-Glutamine, 1/1000 2-Mercaptoethanol (2-Me) (Gibco, ThermoFisher Scientific, MA, USA) (or without 2-Me as indicated) and 200 units/ml of Recombinant Human IL-2 (PeproTech, NJ, USA) in 24-well microplates, new media added and supplemented every other day. TCR-γδ T cells were expanded in 24-well tissue culture treated microplates that were coated with mouse-monoclonal Anti-Pan-TCR γδ antibody (1.0 ug/ml in PBS; IMMU510, IM1349, Beckman). For naive γδT cell isolation, PBMCs were purified using a commercial Human TCR γ/δ T Cell Isolation Kit (Miltenyi Biotec, Germany). Purified naive γδ T cells routinely exceeded >95% concentration by flow cytometry. Human melanoma cell lines A375, A2058, WM9, 903 were obtained from Meenhard Herlyn's laboratory (The Wistar Institute, Philadelphia, PA, USA) and they were routinely tested for mycoplasma and DNA fingerprinted (Liu, et al., 2018, Nat Commun 9: 5426). Lung cancer cell line H1975, Colon cancer cell line HT-29, Gastric cancer cell line NCI-N87 were purchased from ATCC. Daudi cells were obtained from Andrei Thomas-Tikhonenko Lab at the University of Pennsylvania and Children's Hospital of Philadelphia, K562 cells were obtained from Michael Milone Lab at the University of Pennsylvania. […]
Flow cytometry: PBMCs and γδ T cell phenotypes were analyzed by flow cytometry. […] Data were acquired on LSRA/B or Fortessa B flow cytometers (BD Biosciences, NJ, USA) at Flow Cytometry and Cell Sorting Resource Laboratory at the University of Pennsylvania and analyzed with FlowJo software (Tree Star, Ashland, OR).

Structure (SMILES): CO[C@H]1C[C@@H]2CC[C@@H](C)[C@@](O)(O2)C(=O)C(=O)N2CCCC[C@H]2C(=O)O[C@H]([C@H](C)C[C@@H]2CC[C@@H](O)[C@H](OC)C2)CC(=O)[C@H](C)/C=C(\C)[C@@H](O)[C@@H](OC)C(=O)[C@H](C)C[C@H](C)/C=C/C=C/C=C/1C [rapamycin]
- expansion of Vδ2 T cells induced by IPP in presence of mTOR inhibitor (Vδ2 T cells; PBMCs with IPP): significantly reduced
- inhibition of Vδ2 T cell expansion by IPP plus resiquimod, relative to IPP (Vδ2 T cells; PBMCs with IPP plus resiquimod and mTOR inhibitor): more prominent

Structure (SMILES): CCOCc1nc2c(N)nc3ccccc3c2n1CC(C)(C)O [resiquimod]
- CTLA-4 expression on CD80+CD86+ APCs (adherent APCs): inhibited the expression
- PD-L1 expression on CD80+CD86+ APCs (adherent APCs): inhibited the expression
- IPP-induced Vδ2 T cell proliferation of purified naive γδ T cells (purified γδ T cells; CFSE staining, 3 days, no APCs): promote IPP-induced Vδ2 T cell proliferation
- ZOL-induced Vδ2 T cell proliferation of purified naive γδ T cells (purified γδ T cells; CFSE staining, 3 days, no APCs): not ZOL-induced Vδ2 T cell proliferation
- proliferation of purified γδ T cells (CFSE dye dilution, colonies) (purified γδ T cells; compared with IPP alone, 4 and 6 days): enhanced IPP induced proliferation of purified γδ T cells
- co-stimulatory effect on IPP induced Vδ2 T cell expansion (Vδ2 T cells; PBMCs, IPP 5 μg/ml plus TLR agonist, day 5 or 7): promoted Vδ2 T cell expansion
- effect of resiquimod on ZOL stimulated Vδ2 T cell expansion (Vδ2 T cells; PBMCs, particularly at higher concentrations of resiquimod (>0.1 μg/ml)): does not promote ZOL stimulation of Vδ2 T cell proliferation from PBMCs in low concentration and inhibits its function in higher concentrations
- Vδ2 T cell expansion after addition of resiquimod at day 3 (Vδ2 T cells; adherent cells and resiquimod added to PBMCs stimulated with IPP for 3 days): did not affect Vδ2 T cell expansion
- costimulatory effect on pan-anti-γδTCR antibody-mediated Vδ2 T cell expansion (Vδ2 T cells; resiquimod 10 μg/ml, PBMCs): costimulatory effect
- yield of Vδ2 T cells after late addition of resiquimod (Vδ2 T cells; resiquimod added to IPP containing culture at day 5): did not increase the yield of Vδ2 T cells
